# The list does not hold the whole screen: it is rich in T/C values a quarter to a half above the control, in often repeated tests (any T/C) and in doses without a T/C. Other doses and runs of a compound stand elsewhere. T/C is the treated group as % of the vehicle group. Some entries give survivors of the animals treated and no T/C: the source holds a T/C of zero for them, seemingly a mark for toxic or unscored doses. Some survivor counts are full or nearly so, which does not show that the dose was tolerated: survival well below the control is almost never listed, so the zero probably covers shortened survival too. Counts of survivors are from the toxicity check (mostly the fifth day) where no day follows; animals may have died later. Schedules are NCI's codes, read here as Q, the interval in days (D) or hours (H), X, the number of doses. Some entries were tested several times; the values are given in rising order. Some schedules carry Z or #; the key to these is not given. Where survival is the endpoint, the PubChem record calls one and a half times the control and up active, and a quarter to a half above the control has no call in these data; cut-offs in other NCI protocols can differ. Some T/C values carry the count of animals alive at the toxicity check (mostly the fifth day); without a count, all were alive then.
# System: L1210 leukemia ip in BDF1 mice, survival T/C
# Test: NCI In Vivo Anticancer Drug Screen. Data for tumor model L1210 Leukemia (intraperitoneal) in B6D2F1 (BDF1) mice
# Settings: T/C endpoint: mean survival time, higher T/C = longer survival
# [1] = dose: 100.0 mg/kg/injection, schedule: Q01DX009 (ip), vehicle: saline with Tween-80
# [2] = dose: 400.0 mg/kg/injection, schedule: Q04DX003 (ip), vehicle: Klucel (hydroxypropylcellulose) (HPC)
# [3] = dose: 400.0 mg/kg/injection, schedule: Q04DX003 (ip), vehicle: saline with Tween-80
# [4] = dose: 400.0 mg/kg/injection, schedule: Q04DX003 (ip), vehicle: saline
# [5] = dose: 675.0 mg/kg/injection, schedule: Q01DX Z (ip), vehicle: saline
# [6] = dose: 20.0 mg/kg/injection, schedule: Q01DX001 (ip), vehicle: saline
# [7] = dose: 200.0 mg/kg/injection, schedule: Q04DX003 (ip), vehicle: Klucel (hydroxypropylcellulose) (HPC)
structure (smiles),measurement,setting,value
Nc1ccc([As](=O)(O)O)cc1,survivor count,"dose: 200.0 mg/kg/injection, schedule: Q01DX009 (ip), vehicle: saline",3 of 3
same,survivor count,"dose: 400.0 mg/kg/injection, schedule: Q01DX009 (ip), vehicle: saline",1 of 3
FC(F)(F)c1cccc(-c2nc3nc(Cl)c(Cl)nc3[nH]2)c1,survivor count,[1],3 of 6
same,survivor count,"dose: 200.0 mg/kg/injection, schedule: Q01DX009 (ip), vehicle: saline with Tween-80",0 of 6
same,survivor count,"dose: 400.0 mg/kg/injection, schedule: Q01DX009 (ip), vehicle: saline with Tween-80",0 of 6
Cc1cc(=O)oc2cc(O)ccc12,survivor count,[2],2 of 6
O=C(O)CCCCOc1ccccc1,survivor count,"dose: 300.0 mg/kg/injection, schedule: Q04DX003 (ip), vehicle: saline",3 of 6
O=P1(c2ccccc2)C=C(Cl)CC1 (stereo unspecified),survivor count,"dose: 300.0 mg/kg/injection, schedule: Q01DX001 (ip), vehicle: saline",0 of 6
CC(C)=CCC/C(C)=C\C1N(C)CCCN1C,survivor count,[1],1 of 6
same,survivor count,"dose: 100.0 mg/kg/injection, schedule: Q04DX003 (ip), vehicle: saline with Tween-80",5 of 6 and 6 of 6
same,survivor count,"dose: 200.0 mg/kg/injection, schedule: Q04DX003 (ip), vehicle: saline with Tween-80",0 of 6
same,survivor count,[3],0 of 6
CCNNC,survivor count,[4],3 of 6
CCOC(=O)C(CC(C)C)NC(=O)C(N)Cc1ccc(N(CCCl)CCCl)cc1 (stereo unspecified),T/C,"dose: 5.0 mg/kg/injection, schedule: Q01DX009 (ip), vehicle: water",131 % of control
same,T/C,"dose: 10.0 mg/kg/injection, schedule: Q01DX009 (ip), vehicle: water",142 % of control
same,T/C,"dose: 20.0 mg/kg/injection, schedule: Q01DX009 (ip), vehicle: water",131 % of control
same,survivor count,"dose: 40.0 mg/kg/injection, schedule: Q01DX009 (ip), vehicle: water",4 of 6
same,survivor count,"dose: 80.0 mg/kg/injection, schedule: Q01DX009 (ip), vehicle: water",0 of 6
CNC/C=C/CNC,survivor count,"dose: 200.0 mg/kg/injection, schedule: Q04DX003 (ip), vehicle: saline",5 of 6
same,survivor count,[4],0 of 6
O=N[O-].O=N[O-].[Co].[NH-]CC[N-]CCO.[NH-]CC[N-]CCO,survivor count,"dose: 200.0 mg/kg/injection, schedule: Q01DX009 (ip), vehicle: water",0 of 6
same,survivor count,"dose: 200.0 mg/kg/injection, schedule: Q04DX003 (ip), vehicle: water",3 of 6
same,survivor count,"dose: 400.0 mg/kg/injection, schedule: Q04DX003 (ip), vehicle: water",0 of 6
NNC(=O)C1CC12CC2 (stereo unspecified),survivor count,"dose: 200.0 mg/kg/injection, schedule: Q01DX001 (ip), vehicle: saline",3 of 6
same,survivor count,"dose: 400.0 mg/kg/injection, schedule: Q01DX001 (ip), vehicle: saline",0 of 6
Nc1ccc(C(=O)NO)cc1,T/C,"dose: 300.0 mg/kg/injection, schedule: Q01DX Z (ip), vehicle: saline",125 and 128 % of control
same,T/C,"dose: 450.0 mg/kg/injection, schedule: Q01DX Z (ip), vehicle: carboxymethylcellulose (CMC)",137 % of control
same,T/C,"dose: 450.0 mg/kg/injection, schedule: Q01DX Z (ip), vehicle: saline",129 and 140 % of control
same,survivor count,"dose: 675.0 mg/kg/injection, schedule: Q01DX Z (ip), vehicle: carboxymethylcellulose (CMC)",2 of 6
same,T/C,[5],127 % of control
same,survivor count,[5],3 of 6
same,survivor count,"dose: 1007.0 mg/kg/injection, schedule: Q01DX Z (ip), vehicle: saline",0 of 6
CCCCC(CCCC)NCCOC(=O)c1ccc(N)cc1,survivor count,"dose: 150.0 mg/kg/injection, schedule: Q01DX001 (ip), vehicle: other",0 of 6
same,survivor count,"dose: 300.0 mg/kg/injection, schedule: Q01DX001 (ip), vehicle: other",0 of 6
CNC1=C(N2CC2C)C(=O)C(NC)=C(N2CC2C)C1=O (stereo unspecified),T/C,"dose: 0.62 mg/kg/injection, schedule: Q01DX009 (ip), vehicle: saline",126 % of control [5 of 6 alive]
same,T/C,"dose: 2.5 mg/kg/injection, schedule: Q01DX001 (ip), vehicle: saline",136 % of control
same,T/C,"dose: 2.5 mg/kg/injection, schedule: Q01DX009 (ip), vehicle: saline",132 % of control
same,T/C,"dose: 5.0 mg/kg/injection, schedule: Q01DX001 (ip), vehicle: saline",142 % of control
same,T/C,"dose: 5.0 mg/kg/injection, schedule: Q01DX009 (ip), vehicle: saline",137 % of control
same,T/C,"dose: 5.4 mg/kg/injection, schedule: Q04DX003 (ip), vehicle: saline",130 % of control
same,T/C,"dose: 6.25 mg/kg/injection, schedule: Q04DX003 (ip), vehicle: saline",148 % of control
same,T/C,"dose: 8.2 mg/kg/injection, schedule: Q04DX003 (ip), vehicle: saline",140 % of control
same,T/C,"dose: 12.5 mg/kg/injection, schedule: Q04DX003 (ip), vehicle: saline",144 % of control
same,survivor count,[6],3 of 6
same,survivor count,"dose: 25.0 mg/kg/injection, schedule: Q04DX003 (ip), vehicle: saline",1 of 6
same,survivor count,"dose: 50.0 mg/kg/injection, schedule: Q04DX003 (ip), vehicle: saline",1 of 6
same,survivor count,"dose: 100.0 mg/kg/injection, schedule: Q04DX003 (ip), vehicle: saline",2 of 6
O=C(/C=C/c1ccc(Cl)cc1)CCN1CCC2CCC(C2)C1 (stereo unspecified),survivor count,"dose: 200.0 mg/kg/injection, schedule: Q01DX001 (ip), vehicle: carboxymethylcellulose (CMC)",2 of 4
same,survivor count,"dose: 400.0 mg/kg/injection, schedule: Q01DX001 (ip), vehicle: carboxymethylcellulose (CMC)",2 of 4
OC1CCCC[CH]1[Hg][Cl] (stereo unspecified),survivor count,"dose: 10.0 mg/kg/injection, schedule: Q01DX001 (ip), vehicle: saline",2 of 6
same,survivor count,[6],1 of 6
same,survivor count,"dose: 40.0 mg/kg/injection, schedule: Q01DX001 (ip), vehicle: saline",0 of 6
same,survivor count,"dose: 80.0 mg/kg/injection, schedule: Q01DX001 (ip), vehicle: saline",1 of 6
CCO/C=C1\SC(=S)N(c2ccc(O)cc2)C1=O,survivor count,"dose: 200.0 mg/kg/injection, schedule: Q01DX009 (ip), vehicle: Klucel (hydroxypropylcellulose) (HPC)",6 of 6
same,survivor count,"dose: 400.0 mg/kg/injection, schedule: Q01DX009 (ip), vehicle: Klucel (hydroxypropylcellulose) (HPC)",1 of 6
same,survivor count,"dose: 400.0 mg/kg/injection, schedule: Q01DX009 (ip), vehicle: other",3 of 6
CN1C2CCC1CC(OC(=O)C(CO)c1ccccc1)C2 (stereo unspecified),survivor count,"dose: 250.0 mg/kg/injection, schedule: Q01DX Z (ip), vehicle: saline",2 of 6
CCCCCC(=O)Nc1cccc(O)c1,survivor count,[3],1 of 6
N#CCCCN=[N+]=[N-],survivor count,"dose: 75.0 mg/kg/injection, schedule: Q04DX003 (ip), vehicle: saline",3 of 6
same,survivor count,"dose: 150.0 mg/kg/injection, schedule: Q04DX003 (ip), vehicle: saline",0 of 6
O=C(OCCl)c1ccc(Cl)c(Cl)c1,survivor count,"dose: 100.0 mg/kg/injection, schedule: Q04DX003 (ip), vehicle: Klucel (hydroxypropylcellulose) (HPC)",6 of 6
same,survivor count,[7],6 of 6
same,survivor count,[2],4 of 6
CCOC(=O)Nc1cncc(NC(=O)OCC)n1,survivor count,"dose: 400.0 mg/kg/injection, schedule: Q01DX009 (ip), vehicle: water",3 of 6
CCCCCCCCCCCCCCN(C)C,survivor count,[7],3 of 6
same,survivor count,[2],0 of 6
